Source: PubChem BioAssay AID686938 (Drosophila RNAi Screening Center, 2013)
Purpose: 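Fly genes required for calcium entry once internal stores are emptied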 (primary screen). Cell system: Drosophila S2R+ cells. Reagents: long dsRNA against Drosophila genes, about 0.25 µg dsRNA per well, roughly 10,000 cells. Timing: 5 days of knock-down before the calcium assay. Challenge: thapsigargin (SERCA pump blocker) to empty calcium stores; entry signal taken 4 min after adding it. Read-out: 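Duplicate raw fluo-4 intensities per well from a plate reader, at rest and four minutes after thapsigargin emptied calcium stores; entry-to-rest ratio filled for only some wells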. Scale: calcium entry signal: higher = stronger calcium signal after store depletion; entry to resting ratio: higher = more calcium entry relative to resting level; resting calcium signal: higher = higher resting calcium signal. Rule for the call: 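Called when the plate z-score of the entry-to-rest ratio, mean of duplicates, falls below −3; wells with low overall dye signal (Fmax z below −2) or more than five off-targets excluded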. Calls: active = strongly reduced calcium entry; inactive = no strong reduction.
The screen tested about 23,000 reagents; this is a random part of those with a known target gene and a result. Over the whole deposit, 75 (0.33%) were called active. 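Raw plate signals without normalisation; calls rest on plate z-scores that were not deposited; ratio present for only 364 wells.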 A plus sign joins genes that one reagent is predicted to hit. No sequences are given here. Not given: the dose of the treatment.

gene knocked down	amplicon	calcium entry signal, replicate 1 (fluorescence units)	calcium entry signal, replicate 2 (fluorescence units)	entry to resting ratio	resting calcium signal, replicate 1 (fluorescence units)	resting calcium signal, replicate 2 (fluorescence units)	call
CG7208	DRSC16212	4.30e7	3.88e7		5.84e7	1.84e7	inactive
CG12994	DRSC19192	2.86e7	3.81e7		1.39e7	1.72e7	inactive
CG12994	DRSC19514	3.54e7	2.71e7		1.84e7	1.33e7	inactive
TBC1D5 (TBC1 domain family member 5)	DRSC16421	4.49e7	5.24e7		1.82e7	2.10e7	inactive
CG1602	DRSC06601	3.90e7	3.82e7		1.82e7	1.66e7	inactive
Rcd2 (Reduction in Cnn dots 2)	DRSC11756	3.50e7	5.72e7		1.87e7	2.71e7	inactive
CG4866	DRSC06899	3.74e7	3.08e7		1.65e7	1.71e7	inactive
peb (pebbled)	DRSC18817	3.43e7	4.06e7		2.01e7	2.20e7	inactive
peb (pebbled)	DRSC23057	3.73e7	3.68e7		2.09e7	1.61e7	inactive
CG7326	DRSC20037	2.55e7	4.08e7		2.06e7	1.61e7	inactive
CG13506	DRSC04150	2.07e7	2.90e7		1.20e7	1.32e7	inactive
Glys (Glycogen synthase)	DRSC16130	3.38e7	5.03e7		1.58e7	1.92e7	inactive
Muc96D (Mucin 96D)	DRSC13709	2.64e7	5.16e7		1.36e7	2.56e7	inactive
Muc96D (Mucin 96D)	DRSC21609	2.69e7	4.17e7		1.42e7	1.77e7	inactive
Muc96D (Mucin 96D)	DRSC23213	3.74e7	4.81e7		1.86e7	2.25e7	inactive
rn (rotund)	DRSC12500	4.57e7	3.59e7		2.46e7	1.87e7	inactive
rn (rotund)	DRSC12543	4.81e7	4.36e7		2.31e7	2.08e7	inactive
rn (rotund)	DRSC12544	3.98e7	3.99e7		2.05e7	1.88e7	inactive
rn (rotund)	DRSC12546	4.68e7	3.49e7		2.08e7	1.64e7	inactive
rn (rotund)	DRSC22291	3.27e7	4.70e7		1.61e7	2.20e7	inactive
Cyp313a4 (Cytochrome P450 313a4)	DRSC16627	3.79e7	4.06e7		1.90e7	2.03e7	inactive
CG9270	DRSC03182	3.07e7			1.57e7		inactive
acs (arcus)	DRSC08185	2.23e7	2.63e7		1.15e7	1.31e7	inactive
CG30259	DRSC04164	3.56e7	4.39e7		1.90e7	1.98e7	inactive
CG30259	DRSC04165	3.47e7	4.40e7		1.80e7	2.12e7	inactive
STUB1 (STIP1 homology and U-box containing protein 1)	DRSC03282	3.10e7	4.30e7		1.59e7	1.82e7	inactive
Cerk (Ceramide kinase)	DRSC12285	2.39e7	3.27e7		1.16e7	1.50e7	inactive
CG1924	DRSC19823	4.01e7	4.81e7		1.96e7	2.33e7	inactive
Cwc25	DRSC00545	2.15e7	3.25e7		1.34e7	1.61e7	inactive
CG9014	DRSC01979	4.83e7	2.97e7		2.12e7	1.39e7	inactive
CG30323	DRSC07656	4.26e7	4.07e7		1.74e7	1.95e7	inactive
Trs23 (TRAPP subunit 23)	DRSC03190	3.88e7	4.58e7		1.81e7	1.90e7	inactive
seq (sequoia)	DRSC06863	2.50e7	3.89e7		1.36e7	1.73e7	inactive
alpha-Est4 (alpha-Esterase-4)	DRSC12616	4.20e7	3.25e7		1.90e7	1.54e7	inactive
Or43b (Odorant receptor 43b)	DRSC07486	3.84e7	3.22e7		1.77e7	1.78e7	inactive
CG15357	DRSC00387	2.69e7	2.75e7		1.33e7	1.31e7	inactive
CG3703	DRSC18172	3.49e7	5.92e7	2.1	1.68e7	2.09e7	inactive
CG3703	DRSC18173	3.99e7	5.45e7	2	2.00e7	2.08e7	inactive
CG3703	DRSC18643	3.39e7	5.72e7	2	1.69e7	2.11e7	inactive
Gyg (Glycogenin)	DRSC03850	2.03e7	4.47e7		1.14e7	1.74e7	inactive
Gyg (Glycogenin)	DRSC04556	2.90e7	4.24e7		1.56e7	1.87e7	inactive
Hacd1 (3-hydroxyacyl-CoA dehydratase 1)	DRSC02988	5.56e7			2.69e7		inactive
CG15530	DRSC15067	2.49e7	3.14e7		1.36e7	1.43e7	inactive
CG34286	DRSC13372	3.96e7	3.17e7		1.96e7	1.51e7	inactive
CG34286	DRSC21790	4.40e7	4.03e7		2.47e7	1.85e7	inactive
CG7011 + Prp31	DRSC10760	3.56e7	4.48e7		1.69e7	2.99e7	inactive
CG12375	DRSC02163	4.39e7			2.21e7		inactive
ct (cut)	DRSC18757	2.07e7	2.54e7		1.18e7	1.46e7	inactive
CG33775	DRSC05353	4.26e7	3.79e7		2.02e7	1.58e7	inactive
mAcon2 (Mitochondrial aconitase 2)	DRSC15629	2.42e7	2.43e7		1.31e7	1.29e7	inactive
CG9951	DRSC11105	2.19e7	2.93e7		1.05e7	2.28e7	inactive
AOX2 (Aldehyde oxidase 2)	DRSC15338	2.60e7	5.44e7		1.41e7	5.41e7	inactive
isoQC (iso Glutaminyl cyclase)	DRSC11790	2.98e7	4.83e7		1.50e7	2.13e7	inactive
gek (genghis khan)	DRSC04688	4.04e7			2.00e7		inactive
CG9928	DRSC03274	4.54e7	3.37e7		2.07e7	1.59e7	inactive
sxc (super sex combs)	DRSC04911	3.58e7	4.42e7		1.94e7	2.07e7	inactive
CG5116	DRSC15720	3.00e7	2.49e7		1.33e7	1.23e7	inactive
ppk22 (pickpocket 22)	DRSC22093	3.71e7	9.88e7		1.76e7	3.77e7	inactive
CG2224	DRSC15429	3.26e7	5.28e7		1.73e7	2.17e7	inactive
nol (no optic lobe)	DRSC21425	3.64e7	3.40e7		2.32e7	1.63e7	inactive
CLIP-190 (Cytoplasmic linker protein 190)	DRSC03283	3.73e7			1.92e7		inactive
pum (pumilio)	DRSC12722	3.00e7	4.02e7		1.47e7	2.11e7	inactive
pum (pumilio)	DRSC12726	3.11e7	5.01e7		1.50e7	1.98e7	inactive
pum (pumilio)	DRSC17037	2.64e7	6.14e7		1.42e7	2.82e7	inactive
pum (pumilio)	DRSC17038	4.57e7	3.83e7		2.38e7	2.01e7	inactive
pum (pumilio)	DRSC22758	4.01e7	4.09e7		2.47e7	1.91e7	inactive
pum (pumilio)	DRSC22794	4.03e7	3.65e7		1.90e7	1.93e7	inactive
PI31 (Proteasome inhibitor 31 kDa)	DRSC07306	3.82e7	3.08e7		1.65e7	1.44e7	inactive
NdufA3 (NADH:ubiquinone oxidoreductase subunit A3)	DRSC18431	1.98e7	2.92e7		9.53e6	1.25e7	inactive
CG13705	DRSC08314	2.86e7	4.54e7		1.26e7	1.77e7	inactive
CG13705	DRSC22691	3.54e7	4.16e7		1.85e7	1.90e7	inactive
CG6951	DRSC10755	1.85e7	3.26e7		1.03e7	1.65e7	inactive
CG33454	DRSC22914	4.54e7	3.61e7		2.48e7	1.81e7	inactive
nompA (no mechanoreceptor potential A)	DRSC06329	2.84e7	3.63e7		1.55e7	1.57e7	inactive
Rif1 (Rap1 interacting factor 1)	DRSC05593	3.66e7	5.23e7		3.21e7	2.16e7	inactive

Copied from above (4 entries):
gene knocked down	amplicon	calcium entry signal, replicate 1 (fluorescence units)	calcium entry signal, replicate 2 (fluorescence units)	entry to resting ratio	resting calcium signal, replicate 1 (fluorescence units)	resting calcium signal, replicate 2 (fluorescence units)	call
CG3703	DRSC18173	3.99e7	5.45e7	2	2.00e7	2.08e7	inactive
CG3703	DRSC18643	3.39e7	5.72e7	2	1.69e7	2.11e7	inactive
Gyg (Glycogenin)	DRSC03850	2.03e7	4.47e7		1.14e7	1.74e7	inactive
Gyg (Glycogenin)	DRSC04556	2.90e7	4.24e7		1.56e7	1.87e7	inactive
